According to article doi:10.1101/2023.04.03.535445 (bioRxiv, 2023):
No constants are given. Whether binding was seen depends on the method and setting. Binding can be weak; no strength is given.

Key:
[1] = target: glycosomal malate dehydrogenase (MDH, residues 1-323) of Trypanosoma cruzi (Trypanosoma cruzi) (UniProt Q4DRD8); test: cryo-EM structure
[2] = target: glycosomal malate dehydrogenase (MDH, residues 1-323) of Trypanosoma cruzi (Trypanosoma cruzi) (UniProt Q4DRD8); test: SEC
[3] = target: glycosomal malate dehydrogenase (MDH, residues 1-323) of Trypanosoma cruzi (Trypanosoma cruzi) (UniProt Q4DRD8); test: cryo-EM structure; remark: listed apart in the source

Measured: binding

full length Pex5 (residues 1-666) of Trypanosoma cruzi (from UniProt Q4DPQ9) (receptor)
binds: [1] | [2] | [3]
